{"source": "PubChem BioAssay AID540256", "about": "(National Center for Advancing Translational Sciences (NCATS), 2011)", "note": "Hit rate of the full screen: of about 300,000 compounds, about 3,700 (1.2%) were called active. This list was built around the results that the source calls inconclusive (neither active nor inactive); the mix of calls is not that of the screen. Calls follow the shape of the full dose curve; tested in HEK293 cells. Potencies of inconclusive entries are doubtful fits and often do not repeat. Potency is read from the fitted curve at half-maximal effect.", "data": [{"assay": "qHTS for Inhibitors of binding or entry into cells for Lassa Virus; also: nearly all actives have a fitted effect of over 50% in size", "conditions": "Lassa virus pseudotype entry inhibition, cell reporter; series mostly up to 37.9 µM", "values": [{"compound": "COc1ccc(CCN=C(N)NS(=O)(=O)c2ccc(F)cc2)cc1", "Potency": "inconclusive: 12.6 µM [inhibitor, partial curve]"}, {"compound": "Cc1ccc(S(=O)(=O)c2cn(Cc3ccccc3)c3cc(N4CCCC4)c(F)cc3c2=O)cc1C", "Potency": "inactive"}, {"compound": "CCOC(=O)CSc1nc(N)c(C#N)c(CC(C)C)c1C#N", "Potency": "inactive"}, {"compound": "CCOc1ccccc1N/C(=N/c1nc(C)cc(C)n1)NC(=O)Nc1ccc(Cl)c(Cl)c1", "Potency": "inactive"}, {"compound": "Cc1nnc(SCc2cccc([N+](=O)[O-])c2)s1", "Potency": "inactive"}, {"compound": "CCN(Cc1ccccc1)C(=O)CCNS(=O)(=O)c1ccc2c(c1)CC(C)N2C(C)=O", "note": "(stereo unspecified)", "Potency": "inactive"}, {"compound": "CC(=O)N=c1sc2c3ccccc3ccc2n1C", "Potency": "inconclusive: 5.8 µM [activator, full curve]"}, {"compound": "COc1ccc(C(=O)Nc2cccc(C)n2)cc1S(=O)(=O)N1CCCc2ccccc21", "Potency": "inconclusive: 11.2 µM [inhibitor, partial curve]"}, {"compound": "CSc1cccc(NC(=O)Cn2cccc2)c1", "Potency": "inactive"}, {"compound": "COc1ccc(C(=O)NC(=S)NNC(=O)CNC(=O)C2CCCCC2)cc1", "Potency": "inactive"}, {"compound": "CN(CCC#N)c1ccc(/C=C(\\C#N)c2ccccn2)cc1", "Potency": "active: 2.24 µM"}, {"compound": "Cn1c(=O)c(C(=O)COC(=O)c2cc(-c3ccco3)nc3ccccc23)c(N)n(CC2CC2)c1=O", "Potency": "inactive"}, {"compound": "O=C(Nc1ccc(Cl)c(Cl)c1)Nc1ccc(Br)cc1F", "Potency": "inconclusive: 12.6 µM [inhibitor, single point]"}, {"compound": "CCc1ccc(-c2cc(C(F)(F)F)n3nc(C(=O)Nc4c(C)nn(Cc5ccccc5C)c4C)cc3n2)s1", "Potency": "inconclusive: 5.17 µM [inhibitor, full curve]"}, {"compound": "O=[N+]([O-])c1ccc(COc2ccc(-c3[nH]ncc3-c3ccccc3)c(O)c2)cc1", "Potency": "inconclusive: 11.2 µM [inhibitor, partial curve]"}, {"compound": "CCCCC(=O)Nc1ncc([N+](=O)[O-])s1", "Potency": "inconclusive: 25.1 µM [inhibitor, single point]"}, {"compound": "O=C1C=C(N(CCO)Cc2ccccc2)c2ccccc2C1=O", "Potency": "active: 4.47 µM"}, {"compound": "COc1cc(CN2CCN(Cc3ccc4cc(F)ccc4n3)CC2CCO)cc(OC)c1", "note": "(stereo unspecified)", "Potency": "inactive"}, {"compound": "CC(=O)N1c2ccc(S(=O)(=O)N3CCC(C(=O)NCc4ccc(Cl)cc4)CC3)cc2CC1C", "note": "(stereo unspecified)", "Potency": "inconclusive: 8.91 µM [inhibitor, single point]"}, {"compound": "CCN1CCCC1CNc1ncnc2c1[nH]c1ccc(F)cc12", "note": "(stereo unspecified)", "Potency": "inconclusive: 1.78 µM [activator, partial curve, poor fit]"}, {"compound": "COCCN1C(=O)N(c2cccc(OC)c2)C(=O)C1CC(=O)Nc1ccc(Cl)cc1", "note": "(stereo unspecified)", "Potency": "inconclusive: 11.2 µM [inhibitor, single point]"}]}]}
